PubChem BioAssay AID686937, Drosophila RNAi Screening Center, 2013
Test: 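Genes in the fly needed for secretion of protein constitutively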 (primary screen). Cell system: Drosophila S2 cells expressing secreted horseradish peroxidase. Reagents: long dsRNA against Drosophila genes. Timing: about 5.5 days (5 days dsRNA, then 12 h reporter induction). Treatment: reporter expression induced after 5 days of dsRNA, read 12 h later; inducer not stated. Measured: 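After 5 days of dsRNA and 12 h of reporter induction, medium peroxidase read by chemiluminescence and scored as per-plate z-score; higher values mean more reporter released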. Reading the numbers: z-score: higher = more reporter secreted into medium.
The deposit covers about 23,000 reagents; shown is an unselected part of those that have a named target and a result. 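Reduced-secretion tags in replicate 1 do not always agree with the z-scores; no criterion for assigning the tags was given.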 Not all columns of the deposit are shown. Not given: the amount of reagent.

For Klp54D [DRSC07450], how do the results read?
z-score, replicate 1: 0.35

For Mst89B [DRSC16748], what does the deposit list?
z-score, replicate 1: 0.28

For btz [DRSC14566], how do the results read?
z-score, replicate 1: 0.37

How did the screen score CG10669 [DRSC14261]?
z-score, replicate 1: -0.23

For Zasp66 [DRSC08932], what was measured?
z-score, replicate 1: 0.15

With Zasp66 [DRSC10631], what does the deposit list?
z-score, replicate 1: 0.43

What did the screen give for Zasp66 [DRSC10632]?
z-score, replicate 1: 0.42

Laid out differently: 2 of the entries above.
{"Target gene": "Zasp66", "amplicon": "DRSC10631", "z-score, replicate 1": 0.43}
{"Target gene": "Zasp66", "amplicon": "DRSC10632", "z-score, replicate 1": 0.42}

The listing continues.
For CG14104 [DRSC10106], what does the deposit list?
z-score, replicate 1: 0.1

With Erk7 [DRSC18127], what does the deposit list?
z-score, replicate 1: 0.27

For Erk7 [DRSC18227], what was measured?
z-score, replicate 1: 0.39

For Erk7 [DRSC21895], what does the deposit list?
z-score, replicate 1: 0.68

With Dhpr [DRSC11135], how do the results read?
z-score, replicate 1: 0.03

With Cys [DRSC16637], what does the deposit list?
z-score, replicate 1: 0.3

For RpL18A [DRSC07538], how do the results read?
z-score, replicate 1: -4.61; phenotype, replicate 1: reduced secretion

With CG15743 [DRSC19709], what was measured?
z-score, replicate 1: 0.46

For CG13679 [DRSC10037], what was measured?
z-score, replicate 1: 0.15

What is on record for CG13679 [DRSC22749]?
z-score, replicate 1: -1.23
